# Laboratory results reported in the M2OR odorant receptor database.
# Chains of the proteins cited; added tags and fusions are not shown. A line that says so, or that is headed by a name, gives the form on record, which may keep a tag or linker.
# OR8B3, as listed by the source: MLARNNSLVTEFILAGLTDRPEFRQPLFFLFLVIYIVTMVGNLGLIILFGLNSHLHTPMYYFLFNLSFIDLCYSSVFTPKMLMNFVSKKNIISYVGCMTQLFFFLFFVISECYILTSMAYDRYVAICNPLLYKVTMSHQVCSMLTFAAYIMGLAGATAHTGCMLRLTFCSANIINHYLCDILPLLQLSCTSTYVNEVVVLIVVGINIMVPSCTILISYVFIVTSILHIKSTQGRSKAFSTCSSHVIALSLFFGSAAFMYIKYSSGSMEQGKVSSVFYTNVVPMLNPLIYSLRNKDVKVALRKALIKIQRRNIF
# OR8B4, as listed by the source: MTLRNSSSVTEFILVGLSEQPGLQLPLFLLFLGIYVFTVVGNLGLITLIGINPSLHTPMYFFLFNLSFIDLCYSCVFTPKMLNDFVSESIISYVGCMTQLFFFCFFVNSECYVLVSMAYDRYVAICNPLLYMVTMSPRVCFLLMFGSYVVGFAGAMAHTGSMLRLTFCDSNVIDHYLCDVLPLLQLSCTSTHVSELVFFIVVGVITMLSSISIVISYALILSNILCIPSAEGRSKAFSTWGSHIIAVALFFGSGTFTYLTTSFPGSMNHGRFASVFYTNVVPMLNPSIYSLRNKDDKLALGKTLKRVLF
# Numbering of substitutions follows the chain as printed. This is a selection; strong and weak results do not stand in their true shares. The calls were merged from several studies; some rest on single wells. This is one part of the list.
# Legend:
# Conditions in all cases: stereoisomer not certain
# [1] = tested on: T1, OR8A1
# T1 sequence (whole entry): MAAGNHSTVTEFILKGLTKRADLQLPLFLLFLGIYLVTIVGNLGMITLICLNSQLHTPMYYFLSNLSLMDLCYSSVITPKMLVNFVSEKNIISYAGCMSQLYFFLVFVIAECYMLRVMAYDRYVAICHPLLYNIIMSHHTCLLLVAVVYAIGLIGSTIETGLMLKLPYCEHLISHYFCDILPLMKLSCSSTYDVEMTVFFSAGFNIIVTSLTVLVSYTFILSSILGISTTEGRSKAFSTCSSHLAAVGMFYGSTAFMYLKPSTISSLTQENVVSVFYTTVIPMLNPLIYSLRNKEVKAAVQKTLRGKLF
# Outline: (§1)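 Each receptor–molecule pair is labelled responsive or non-responsive (inactive) according to whether the original authors judged the measured signal statistically different from baseline. The data were taken from the main text and supplementary material of published papers and checked for typos and inconsistencies. Assay methods differed by source, with transient luciferase assays in mammalian cell lines being common.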
# [2] = target: T2, OR8B12 (Homo sapiens) (UniProt Q8NGG6)
# T2 sequence (whole entry): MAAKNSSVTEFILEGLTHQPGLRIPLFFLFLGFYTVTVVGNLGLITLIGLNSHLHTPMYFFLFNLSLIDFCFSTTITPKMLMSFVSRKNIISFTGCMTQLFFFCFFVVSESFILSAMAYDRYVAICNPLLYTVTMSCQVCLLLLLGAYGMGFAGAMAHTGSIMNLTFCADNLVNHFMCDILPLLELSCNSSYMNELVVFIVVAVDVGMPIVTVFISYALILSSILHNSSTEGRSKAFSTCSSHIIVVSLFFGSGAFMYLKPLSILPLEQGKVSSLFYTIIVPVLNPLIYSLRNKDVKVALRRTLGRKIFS
# Outline: as §1
# [3] = target: T3, OR8B2 (Homo sapiens) (UniProt Q96RD0)
# T3 sequence (whole entry): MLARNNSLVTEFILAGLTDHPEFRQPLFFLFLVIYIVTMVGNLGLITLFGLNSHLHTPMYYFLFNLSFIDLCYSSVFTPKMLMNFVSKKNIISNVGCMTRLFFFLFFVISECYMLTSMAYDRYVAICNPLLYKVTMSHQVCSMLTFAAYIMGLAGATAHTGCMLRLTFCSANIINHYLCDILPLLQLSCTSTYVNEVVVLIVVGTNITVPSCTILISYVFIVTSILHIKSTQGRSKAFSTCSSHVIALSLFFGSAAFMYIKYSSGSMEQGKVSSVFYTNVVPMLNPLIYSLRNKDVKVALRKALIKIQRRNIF
# Outline: as §1
# [4] = tested on: T4, OR8B3
# T4 sequence (whole entry): T3 sequence (whole entry) with H20R, T47I, N94Y, R100Q, M114I, T205I, T208M
# Outline: as §1
# [5] = tested on: T5, OR8B4
# T5 sequence (whole entry): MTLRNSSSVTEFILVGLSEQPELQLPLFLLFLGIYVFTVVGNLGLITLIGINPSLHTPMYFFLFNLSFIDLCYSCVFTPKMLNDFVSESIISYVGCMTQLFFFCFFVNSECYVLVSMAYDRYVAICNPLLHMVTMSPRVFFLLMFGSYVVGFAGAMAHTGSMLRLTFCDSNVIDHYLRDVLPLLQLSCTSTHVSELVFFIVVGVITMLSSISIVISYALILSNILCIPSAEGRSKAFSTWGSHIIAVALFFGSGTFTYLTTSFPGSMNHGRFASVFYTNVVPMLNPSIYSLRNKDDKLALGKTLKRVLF
# Outline: as §1
# [6] = tested on: T6, OR8B4; remark: listed apart in the source
# T6 sequence (whole entry): T5 sequence (whole entry) with E22G, H131Y, F140C, R178C
# Outline: as §1
# [7] = target: T7, OR8B8 (Homo sapiens) (UniProt Q15620)
# T7 sequence (whole entry): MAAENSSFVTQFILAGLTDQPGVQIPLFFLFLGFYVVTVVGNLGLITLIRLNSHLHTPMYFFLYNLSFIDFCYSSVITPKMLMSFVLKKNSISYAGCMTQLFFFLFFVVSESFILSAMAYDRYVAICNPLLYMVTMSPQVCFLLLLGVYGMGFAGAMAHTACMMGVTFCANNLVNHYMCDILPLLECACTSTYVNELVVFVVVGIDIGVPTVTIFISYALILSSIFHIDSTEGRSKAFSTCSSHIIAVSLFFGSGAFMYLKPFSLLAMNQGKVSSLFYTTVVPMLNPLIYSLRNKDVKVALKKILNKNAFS
# Outline: as §1
# [8] = tested on: T8, OR8B8
# T8 sequence (whole entry): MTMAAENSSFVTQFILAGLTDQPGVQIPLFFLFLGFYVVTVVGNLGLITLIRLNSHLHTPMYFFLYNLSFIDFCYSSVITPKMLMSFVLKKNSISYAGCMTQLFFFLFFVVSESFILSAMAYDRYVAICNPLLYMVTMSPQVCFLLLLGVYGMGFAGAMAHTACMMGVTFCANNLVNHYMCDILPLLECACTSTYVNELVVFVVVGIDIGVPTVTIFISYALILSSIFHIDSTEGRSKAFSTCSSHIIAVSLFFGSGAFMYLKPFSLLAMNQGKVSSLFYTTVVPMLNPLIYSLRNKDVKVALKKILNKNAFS
# Outline: as §1
# [9] = target: T9, OR8D1 (Homo sapiens) (UniProt Q8WZ84)
# T9 sequence (whole entry): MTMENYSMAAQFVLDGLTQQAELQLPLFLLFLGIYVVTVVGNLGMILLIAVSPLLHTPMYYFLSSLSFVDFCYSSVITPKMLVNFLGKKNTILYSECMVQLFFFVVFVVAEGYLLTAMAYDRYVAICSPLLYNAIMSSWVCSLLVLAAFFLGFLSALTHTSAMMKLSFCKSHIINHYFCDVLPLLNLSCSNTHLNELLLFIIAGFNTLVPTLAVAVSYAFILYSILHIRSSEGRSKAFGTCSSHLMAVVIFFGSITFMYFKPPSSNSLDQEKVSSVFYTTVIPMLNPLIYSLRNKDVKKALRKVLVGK
# Outline: as §1
# [10] = target: T10, OR8D2 (Homo sapiens) (UniProt Q9GZM6)
# T10 sequence (whole entry): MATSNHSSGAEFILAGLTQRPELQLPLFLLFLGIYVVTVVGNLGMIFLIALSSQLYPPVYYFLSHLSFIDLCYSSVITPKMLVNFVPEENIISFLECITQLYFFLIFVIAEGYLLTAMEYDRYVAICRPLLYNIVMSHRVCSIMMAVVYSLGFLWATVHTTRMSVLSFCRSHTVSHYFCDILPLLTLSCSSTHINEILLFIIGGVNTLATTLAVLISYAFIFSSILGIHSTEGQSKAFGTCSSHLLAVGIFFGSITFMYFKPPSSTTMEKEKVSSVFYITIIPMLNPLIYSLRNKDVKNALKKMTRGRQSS
# Outline: as §1
# [11] = tested on: T11, OR8D4
# T11 sequence (whole entry): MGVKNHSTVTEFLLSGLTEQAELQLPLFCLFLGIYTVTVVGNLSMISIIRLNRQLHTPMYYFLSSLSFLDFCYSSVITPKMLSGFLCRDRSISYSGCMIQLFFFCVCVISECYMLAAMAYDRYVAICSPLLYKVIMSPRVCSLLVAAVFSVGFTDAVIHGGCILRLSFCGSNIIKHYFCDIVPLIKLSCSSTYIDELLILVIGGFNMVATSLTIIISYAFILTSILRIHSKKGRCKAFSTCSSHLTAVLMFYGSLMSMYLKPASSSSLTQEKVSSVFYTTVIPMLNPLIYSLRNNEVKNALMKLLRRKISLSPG
# Outline: as §1
# [12] = target: T12, OR8G1 (Homo sapiens) (UniProt Q15617)
# T12 sequence (whole entry): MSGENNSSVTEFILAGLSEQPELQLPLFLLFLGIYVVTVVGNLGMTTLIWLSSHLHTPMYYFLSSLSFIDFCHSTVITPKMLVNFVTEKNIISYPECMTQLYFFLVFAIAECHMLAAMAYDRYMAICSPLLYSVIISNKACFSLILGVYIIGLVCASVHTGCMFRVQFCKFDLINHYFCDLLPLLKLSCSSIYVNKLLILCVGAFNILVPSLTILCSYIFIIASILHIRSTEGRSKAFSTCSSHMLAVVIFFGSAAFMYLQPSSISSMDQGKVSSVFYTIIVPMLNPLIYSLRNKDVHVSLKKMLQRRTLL
# Outline: as §1
# [13] = target: T13, OR8G5 (Homo sapiens) (UniProt Q8NG78)
# T13 sequence (whole entry): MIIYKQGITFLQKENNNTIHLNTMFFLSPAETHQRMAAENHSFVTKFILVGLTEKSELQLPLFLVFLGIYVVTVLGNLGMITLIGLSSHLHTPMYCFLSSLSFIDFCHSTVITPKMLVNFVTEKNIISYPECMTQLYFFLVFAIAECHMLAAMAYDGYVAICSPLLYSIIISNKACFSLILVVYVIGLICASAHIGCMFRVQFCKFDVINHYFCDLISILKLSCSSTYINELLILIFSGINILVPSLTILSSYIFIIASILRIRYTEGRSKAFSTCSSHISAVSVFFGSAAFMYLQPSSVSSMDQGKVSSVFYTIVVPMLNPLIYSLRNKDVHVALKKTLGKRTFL
# Outline: as §1
# [14] = tested on: T14, OR8G5
# T14 sequence (whole entry): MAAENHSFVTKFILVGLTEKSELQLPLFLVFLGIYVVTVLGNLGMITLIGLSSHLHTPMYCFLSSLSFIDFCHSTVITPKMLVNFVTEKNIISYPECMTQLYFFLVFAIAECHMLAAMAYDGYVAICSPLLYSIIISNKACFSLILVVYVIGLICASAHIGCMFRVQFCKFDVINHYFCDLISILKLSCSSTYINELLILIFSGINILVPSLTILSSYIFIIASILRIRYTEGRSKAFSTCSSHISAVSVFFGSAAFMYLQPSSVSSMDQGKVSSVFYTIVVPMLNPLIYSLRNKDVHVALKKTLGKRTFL
# Outline: as §1
# [15] = target: T15, OR8H1 (Homo sapiens) (UniProt Q8NGG4)
# T15 sequence (whole entry): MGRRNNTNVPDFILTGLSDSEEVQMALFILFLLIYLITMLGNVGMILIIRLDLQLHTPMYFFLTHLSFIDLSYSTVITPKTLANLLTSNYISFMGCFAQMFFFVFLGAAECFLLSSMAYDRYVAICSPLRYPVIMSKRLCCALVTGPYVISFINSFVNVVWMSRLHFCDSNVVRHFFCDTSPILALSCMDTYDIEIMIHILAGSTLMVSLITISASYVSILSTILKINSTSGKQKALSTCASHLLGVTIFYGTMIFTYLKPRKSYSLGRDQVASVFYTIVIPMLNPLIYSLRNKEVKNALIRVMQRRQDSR
# Outline: as §1
# [16] = tested on: T16, OR8H2
# T16 sequence (whole entry): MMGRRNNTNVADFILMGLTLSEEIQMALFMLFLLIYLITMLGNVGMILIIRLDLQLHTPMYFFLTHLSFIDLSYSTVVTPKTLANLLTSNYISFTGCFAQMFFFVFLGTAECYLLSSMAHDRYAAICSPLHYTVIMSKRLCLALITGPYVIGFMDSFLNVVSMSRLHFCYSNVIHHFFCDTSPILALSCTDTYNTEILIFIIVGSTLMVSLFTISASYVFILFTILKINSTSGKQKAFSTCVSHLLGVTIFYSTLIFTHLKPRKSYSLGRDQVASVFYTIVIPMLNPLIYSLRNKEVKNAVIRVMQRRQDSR
# Outline: as §1
# 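Also: active if original authors judged signal statistically different from baseline.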
Compound,odorant receptor agonist call [1],odorant receptor agonist call [2],odorant receptor agonist call [3],odorant receptor agonist call [4],odorant receptor agonist call [5],odorant receptor agonist call [6],odorant receptor agonist call [7],odorant receptor agonist call [8],odorant receptor agonist call [9],odorant receptor agonist call [10],odorant receptor agonist call [11],odorant receptor agonist call [12],odorant receptor agonist call [13],odorant receptor agonist call [14],odorant receptor agonist call [15],odorant receptor agonist call [16]
CC(C)(C)c1ccc(CCC=O)cc1,inactive,inactive,inactive,inactive,inactive,inactive,inactive,inactive,inactive,inactive,inactive,inactive,inactive,inactive,inactive,inactive
CC(C)C=O,inactive,inactive,inactive,inactive,inactive,inactive,inactive,inactive,inactive,inactive,inactive,inactive,inactive,inactive,inactive,inactive
CC=Cc1ccc(O)c(OC)c1,active,active,active,active,inactive,inactive,inactive,inactive,inactive,inactive,inactive,inactive,inactive,inactive,inactive,inactive
O=C1CCCCC1,inactive,–,–,–,inactive,inactive,inactive,inactive,inactive,inactive,inactive,inactive,inactive,inactive,inactive,inactive
CC1COCc2cc3c(cc21)C(C)(C)C(C)C3(C)C (configuration not stated),active,active,inactive,inactive,active,inactive,active,inactive,inactive,inactive,inactive,active,inactive,active,active,inactive
CCCCCCCCC=O,–,–,–,–,–,–,–,–,inactive,–,–,–,–,–,–,–
CC(C)(O)CCCC1=CCC(C=O)CC1 (configuration not stated),–,inactive,inactive,inactive,–,–,–,–,–,–,–,–,–,–,–,–
CCCCCCCC=O,inactive,inactive,inactive,inactive,inactive,inactive,inactive,inactive,inactive,inactive,inactive,inactive,inactive,inactive,inactive,inactive
CC(=O)c1ccccc1,inactive,–,inactive,–,inactive,inactive,inactive,inactive,inactive,inactive,inactive,inactive,inactive,inactive,inactive,inactive
CCC1(O)C2(C)CCC(C2)C1(C)C (configuration not stated),inactive,inactive,inactive,inactive,inactive,inactive,inactive,inactive,inactive,inactive,inactive,inactive,inactive,inactive,inactive,inactive
CCCCCCCCCCC=O,inactive,inactive,active,inactive,inactive,inactive,inactive,inactive,inactive,inactive,inactive,inactive,inactive,inactive,inactive,inactive
C=CCc1ccc(O)c(OC)c1,–,–,–,–,–,–,–,–,inactive,–,–,–,–,–,–,–
c1ccc(Oc2ccccc2)cc1,inactive,inactive,inactive,inactive,inactive,inactive,inactive,inactive,inactive,inactive,inactive,inactive,inactive,inactive,inactive,inactive
COc1cc(C=O)ccc1O,inactive,inactive,inactive,inactive,inactive,inactive,inactive,inactive,inactive,inactive,inactive,inactive,inactive,inactive,inactive,inactive
O=CCc1ccccc1,inactive,active,active,active,inactive,inactive,inactive,inactive,inactive,inactive,inactive,inactive,inactive,inactive,inactive,inactive
